# PubChem BioAssay AID588781 – Weizmann Institute – 2011
# Purpose: 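Kinases needed for rigidity sensing and shape polarity in fibroblasts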
# Cell system: human foreskin fibroblasts (HFF)
# Reagents: siRNA against human genes
# Treatment: cells plated on fibronectin-coated silicone of high versus low stiffness (range about 2 MPa to 5 kPa)
# Measured: 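Actin-stained fibroblasts on stiff (about 2 MPa) or soft (about 5 kPa) fibronectin-coated silicone were imaged; shape, stress fibres and edges scored, differences given as (stiff − soft)/stiff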
# Reading the numbers: stiff-soft elongation difference: higher = elongation depends more strongly on substrate stiffness
# Shown is an unselected part of 85 deposited reagents. 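Knockdowns of interest may either weaken or strengthen the stiffness dependence of elongation, so both low and high differences matter.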 Further read-outs or replicates are left out here. Not given: the amount of reagent, the time to read-out.
stiff-soft elongation difference,Gene
0.14,EPHB4
0.39,NTRK2
0.11,FER
0.21,FES
0.12,ERBB3
0.29,MATK
0.24,FGFR2
0.3,PTK2
0.28,TEK
0.29,RET
0.19,FGFR1
0.13,JAK1
0.21,MUSK
0.27,EPHA8
0.24,EPHA3
0.1,TWF1
0.28,ABL1
0.05,FLT4
0.2,MERTK
0.22,TXK
0.28,KIT
0.33,INSR
0,TYRO3
0.19,FYN
0.15,EGFR
0.25,EPHB3
0.16,ERBB2
0.32,LCK
0.3,TWF2
0.2,LYN
0.25,EPHB1
0.19,TP53RK
0.36,TEC
0.35,SYK

Not a retest: 3 of the entries above.
stiff-soft elongation difference,Gene
0.2,MERTK
0.22,TXK
0.28,KIT
